Source: patent publication US11584937B2, “Compositions and methods for controlling plant growth and development” (THE TRUSTEES OF THE UNIVERSITY OF PENNSYLVANIA, priority 2014, dated 2023)
For at least one compound, name, drawing or mass did not settle the structure.

Test system: APETALA1 (AP1)
Experiment: AP1 induction (qRT-PCR, pAP1:AP1-GFP imaging) in GR-fusion transgenic plants after treatment
Format: in vivo, Arabidopsis thaliana
Settings: plants expressing both RGA-GR and LFY-GR, 10 μM dexamethasone, 4 hours

C[C@@H]1C[C@H]2[C@@H]3CCC4=CC(=O)C=C[C@]4(C)[C@@]3(F)[C@@H](O)C[C@]2(C)[C@@]1(O)C(=O)CO [dexamethasone]
AP1 expression: increase in AP1 expression
